Assay results: PubChem BioAssay AID540276 (National Center for Advancing Translational Sciences (NCATS), 2011)
Where “and” joins values, the source holds several entries; their conditions need not be identical. Equal values may be shown once. Among all 300,000 compounds or so, about 5,400 (1.8%) were called active. The inconclusive results got no clear call from the source; some entries with a clear call stand among them for comparison. Calls follow the shape of the full dose curve; tested in HEK293 cells. Potencies of inconclusive entries are doubtful fits and often do not repeat.

Assay: qHTS for inhibitors of binding or entry into cells for Marburg Virus
Settings: Marburg virus pseudotyped entry inhibition, cell reporter; activity change, negative = inhibition: at 37.8 µM (top of the series) unless noted
% is scaled to controls: 0 for no effect and ±100 for the full control effect; potency is read from the fitted curve at half-maximal effect.

Row | SMILES | Potency | activity change, negative = inhibition
1 | CCOC(=O)C1(CCOc2ccccc2)CCN(Cc2cccc(OCCO)c2)CC1 | inconclusive: 12.6 µM [inhibitor, partial curve, poor fit] | –
2 | COc1ccc(C2CC(=O)c3cnc(NC(=O)c4cccc(OC)c4)nc3C2)cc1 (stereo not drawn) | – | inactive: 1.29%
3 | COC(=O)C1=C(C(=O)OC)[C@@H]2N(C)c3ccccc3[C@@]23C[C@@H](CO)N(C(=O)NC2CCCCC2)C3=N1 | – | inactive: -1.87% [at 14.2 µM]
4 | Cc1cccc(OCc2nnc(SCC(=O)N(C(C)C)C(C)C)n2Cc2ccco2)c1C | inconclusive: 25.9 µM [inhibitor, single point] | –
5 | O=C(CN1CCOCC1)Nc1cccc(C(=O)Nc2cccc(C(F)(F)F)c2)c1 | inconclusive: 32.6 µM [inhibitor, single point] | –
6 | CSc1ccccc1OCc1cc(C(=O)N(C)Cc2ccncn2)no1 | – | inactive: 27.2%
7 | O=C(Nc1ccc2ccccc2c1)c1nn(C23CC4CC(CC(C4)C2)C3)cc1Br | inconclusive: 10.3 µM [inhibitor, partial curve] | –
8 | Cc1ccc(S(=O)(=O)NC(C)C(=O)Nc2ccc3c(c2)OCO3)cc1 (stereo not drawn) | inconclusive: 6.31 µM [inhibitor, single point] | –
9 | Nc1c(C(=O)Nc2ccccc2)sc2nc3c(c(-c4ccco4)c12)CCCC3 | – | inactive: 1.17% [at 46.1 µM]
10 | COc1ccc(NC(=O)c2ccccc2NC(=O)CSc2ccc(C)cc2)cc1 | inconclusive: 29.1 µM [inhibitor, single point] | –
11 | Fc1ccc(Cn2cccc2C2=NC(c3ccccc3)CO2)cc1 (stereo not drawn) | – | inactive: 26.4%
12 | O=C1CC(c2ccco2)CC(O)=C1C=Nc1cc(Cl)ccc1Cl (stereo not drawn) | – | inactive: 9.11%
13 | CCN(CC)c1ccc(C(=O)NNC(=O)CCl)cc1 | – | inactive: -20.9% [at 46.1 µM]
14 | CC(=O)Oc1ccc(-c2csc(Nc3cccnc3)n2)cc1 | inconclusive: 35.5 µM [activator, single point] | –
15 | CCCNC(=O)OC[C@H]1O[C@H](CCON=C(C)CCC(=O)OC[C@H]2O[C@H](C#Cc3ccccc3)C=C[C@H]2Oc2ccc(C)cc2)C=C[C@H]1Oc1ccc(OC)cc1 | – | inactive: -28.6% [at 14.2 µM]
16 | Cc1cc(C(=O)NN=C2C3CC4CC(C3)CC2C4)c2ccccc2n1 | inconclusive: 3.66 µM [inhibitor, single point] | –
17 | COC(=O)C1=C(c2ccccc2)c2ccccc2S(=O)(=O)N1CC(=O)Nc1ccc(F)c(F)c1 | inconclusive: 3.16 µM [inhibitor, partial curve, poor fit] | –
18 | O=[N+]([O-])c1cc(-c2ccccc2)cc([N+](=O)[O-])c1O | – | inactive: -1.53% [at 46.1 µM]
19 | COc1ccc(C2CC(c3ccccc3)Nc3nc(NC(=O)c4cccs4)nn32)cc1 (stereo not drawn) | inconclusive: 11.2 µM [inhibitor, partial curve] | –
20 | Cc1c(/C=N/NC(=O)c2cccnc2)c2ccccc2n1Cc1ccccc1 | – | inactive: -25.6% [at 46.1 µM]
21 | CCOc1ccc(C(=O)Nc2cccc(SC)c2)cc1 | inconclusive: 18.4 µM [inhibitor, partial curve, poor fit] | –
22 | O=[N+]([O-])c1ccc2oc(C(O)c3cccc(Cl)c3)cc2c1 (stereo not drawn) | inconclusive: 35.5 µM [inhibitor, partial curve, poor fit] | –
23 | O=C(OCC(=O)N1CCCc2ccccc21)c1ccccc1[N+](=O)[O-] | inconclusive: 7.94 µM [activator, partial curve, poor fit] | –

As entered above:
`Fc1ccc(Cn2cccc2C2=NC(c3ccccc3)CO2)cc1` (stereo not drawn) – activity change, negative = inhibition: inactive: 26.4%
`Nc1c(C(=O)Nc2ccccc2)sc2nc3c(c(-c4ccco4)c12)CCCC3` – activity change, negative = inhibition: inactive: 1.17% [at 46.1 µM]

Further structures.

Row | SMILES | Potency | activity change, negative = inhibition
24 | CCn1cc(CNC(=O)CSc2nc(-c3ccc(OC)c(OC)c3)cc(C(F)(F)F)n2)c(C)n1 | – | inactive: 2.42%
25 | O=c1ccc2ccc(Oc3ccc([N+](=O)[O-])cc3Cl)cc2o1 | inconclusive: 6.31 µM [inhibitor, single point] | –
26 | Cc1cc(C(=O)N/N=C/c2cccnc2)n[nH]1 | – | inactive: -1.37% [at 46.1 µM]
27 | COc1cc(CNCCc2ccc(S(N)(=O)=O)cc2)ccc1OCC(=O)NC1CCCCC1 | inconclusive: 18.3 µM [inhibitor, partial curve, poor fit] | –
28 | Cc1onc(-c2c(Cl)cccc2Cl)c1COC(=O)c1ccc([N+](=O)[O-])cc1 | – | inactive: -18% [at 14.2 µM]
29 | CCN1C(=O)[C@@H]2[C@H]3[C@H](O)[C@H](O)CC(=NOC[C@@H](C)[C@H](OCc4ccccc4)C(C)C)[C@@H]3CC[C@H]2C1=O | – | inactive: 1.23% [at 14.2 µM]
30 | CCOC(=O)c1cnc2ccccc2c1NCCc1ccc(OC)c(OC)c1 | inconclusive: 14.6 µM [inhibitor, single point] | –
31 | C/C(=N/NC(=O)c1ccccn1)c1ccco1 | inconclusive: 16.4 µM [inhibitor, partial curve, poor fit] | –
32 | CC(=O)c1cn(CC(=O)Nc2ccc(C)cc2C)c2ccccc12 | inconclusive: 35.5 µM [inhibitor, single point] | –
33 | O=C(c1ccc(Cl)cc1)C12CN3CN(CN(C3)C1)C2 | inconclusive: 35.5 µM [activator, single point] | –
34 | Cc1ccc(S(=O)(=O)Nc2nc3ccccc3nc2NCc2ccco2)cc1C | inconclusive: 0.224 µM [inhibitor, full curve, poor fit] | –
35 | CCOc1ccc(N=Nc2cc(C(C)C)ccc2O)cc1 | – | inactive: 16.5%
36 | CCOc1ccccc1N(CC(=O)Nc1ccccc1C(=O)NCc1ccco1)S(C)(=O)=O | inconclusive: 0.13 µM [inhibitor, full curve, poor fit] | –
37 | CC(C)Oc1ccccc1-c1cc(C(=O)N/N=C/c2cccnc2)c2ccccc2n1 | inconclusive: 3.98 µM [inhibitor, partial curve, poor fit] | –
38 | CCC(=O)c1ccc(OCC(=O)Nc2cccc(S(=O)(=O)N3CCCCCC3)c2)cc1 | inconclusive: 7.94 µM [inhibitor, partial curve, poor fit] | –
39 | CCN(CC)C(=O)Cn1cc(SCC(=O)Nc2cc(C)on2)c2ccccc21 | inconclusive: 5.62 µM [inhibitor, partial curve, poor fit] | –
40 | Cc1nc2ccc(NS(=O)(=O)c3ccc4c(c3)OCCO4)cc2s1 | inconclusive: 5.62 µM [inhibitor, full curve] | –
41 | Cc1ccc(NC(=O)N2CCCCCC2)cc1 | – | inactive: 12.4% [at 46.1 µM]
42 | Cc1ccccc1N1C(=O)NC(=O)/C(=C\c2cc(Br)c(N3CCOCC3)o2)C1=O | inconclusive: 11.2 µM [inhibitor, partial curve] | –
43 | O=c1[nH]c(-c2ccccn2)nc2ccccc12 | inconclusive: 35.5 µM [inhibitor, single point] | –
44 | O=C(CC(c1ccccc1)c1ccccc1O)NCCN1CCOCC1 (stereo not drawn) | – | inactive: -1.6%
45 | Cc1onc(-c2ccccc2Cl)c1C(=O)Oc1cccc2cccnc12 | inconclusive: 2.51 µM [inhibitor, partial curve, poor fit] | –
46 | CCN(CC)CCNC(=O)c1c(C)n(-c2ccccc2)c2cc(Br)c(OC)cc12 | inconclusive: 2.59 µM [inhibitor, partial curve, poor fit] | –

Reformatted: 2 of the compounds above.
Row,SMILES,Potency,"activity change, negative = inhibition"
28,Cc1onc(-c2c(Cl)cccc2Cl)c1COC(=O)c1ccc([N+](=O)[O-])cc1,–,inactive: -18% [at 14.2 µM]
37,CC(C)Oc1ccccc1-c1cc(C(=O)N/N=C/c2cccnc2)c2ccccc2n1,"inconclusive: 3.98 µM [inhibitor, partial curve, poor fit]",–

(continued)

Row | SMILES | Potency | activity change, negative = inhibition
47 | COc1ccc(C=CC(O)CCN2CCC3CCC(C3)C2)cc1 (stereo not drawn) | inconclusive: 25.1 µM [inhibitor, single point] | –
48 | CCCCn1c(N)c(N(CC(C)C)C(=O)C(C)SCc2nc3sc(C)c(C)c3c(=O)[nH]2)c(=O)[nH]c1=O (stereo not drawn) | – | inactive: 21.3%
49 | O=C(NOC(=O)c1ccccc1F)c1ccc(OC(F)F)cc1 | inconclusive: 6.31 µM [activator, partial curve, poor fit] | –
50 | CCN1C(C(=O)c2ccccc2)=C(Nc2ccccc2C)c2ccccc2S1(=O)=O | inconclusive: 3.98 µM [activator, partial curve, poor fit] | –
51 | Cc1ccc(NC(=O)CN2C(=O)NC(Cc3ccccc3)C2=O)cc1 (stereo not drawn) | inactive and inconclusive: 20 µM [activator, single point] | –
52 | COc1ccc(NC(=O)CSc2nc(=O)n(CCN3CCOCC3)c3c2CCC3)cc1 | – | inactive: -0.161%
53 | CC(=O)Nc1cccc(NS(=O)(=O)c2cc3c4c(c2)CCN4C(=O)CC3)c1 | – | inactive: -10.5%
54 | CC(C)(C)NC[C@H](O)c1ccc(O)c(CO)c1 | inactive | –
55 | O=C(NCC(c1cccnc1)N1CCN(c2ccc(F)cc2)CC1)OCc1ccccc1 (stereo not drawn) | inconclusive: 17.8 µM [inhibitor, partial curve, poor fit] | –
56 | Cc1ccc(COC(=O)c2nn(-c3ccccc3)nc2N)cc1 | – | inactive: 1.92% [at 46.1 µM]
57 | COc1c(C)cc(C(=O)C2CCCN(C(=O)c3cccc(-n4cccn4)c3)C2)cc1C (stereo not drawn) | – | inactive: -3.79% [at 46.1 µM]
58 | CCCn1c(C)cc(C(=O)Cn2nnc3ccccc3c2=O)c1C | active: 14.1 µM | –
59 | CC(NCc1ccc2c(c1)OCO2)C(=O)NC1CCCCC1 (stereo not drawn) | – | inactive: -20.5% [at 46.1 µM]
60 | COc1ccc2c(-c3ccccc3)cc(=O)[nH]c2c1 | inconclusive: 6.51 µM [inhibitor, single point] | –
61 | CCCCC(=O)NC(=S)NNS(=O)(=O)c1ccccc1 | inconclusive: 4.47 µM [activator, partial curve] | –
62 | CCCn1c(C)cc(/C=C(\C#N)C(=O)OCC(=O)N(C)c2c(N)n(Cc3ccccc3)c(=O)[nH]c2=O)c1C | inconclusive: 14.1 µM [activator, single point] | –
63 | Cc1ccc(NC(=O)C(C)Sc2nc(=O)cc(N)n2-c2cccc(C)c2)cc1 (stereo not drawn) | – | inactive: -15.8% [at 46.1 µM]
64 | Cc1c(C2=CCN(S(=O)(=O)c3cccc(Cl)c3)CC2)c2ccccc2n1CC(=O)N1CCCC1 | – | inactive: 19.5% [at 46.1 µM]
65 | O=C(Nc1cccnc1)c1ccc2ccccc2c1O | inconclusive: 35.5 µM [inhibitor, single point] | –
66 | O=C(c1cc(COc2ccc(F)cc2Cl)on1)N1CCCC(c2ccccc2)C1 (stereo not drawn) | inconclusive: 35.5 µM [inhibitor, single point] | –
67 | COc1ccccc1C(=O)NC(=O)COC(=O)c1cc[n+]([O-])cc1 | inconclusive: 11.2 µM [activator, single point] | –
68 | CCCCC(=O)N1CCN(c2nc3ccc(Cl)cc3s2)CC1 | inconclusive: 3.55 µM [activator, single point] | –
